These are yes or no findings as the source states them, for the method shown. In cells and extracts the contact can be indirect. Some entries that bind do so weakly or less than the wild type.
Biological target: pro-caspase-1 (C285A mutant) (human) (UniProt P29466)
Test: co-immunoprecipitation of Myc- and HA-tagged pro-caspase-1 (C285A) from 293T lysates

By UniProt entry, the sequences of proteins in these tests, tags left out. Where a name states a change or a piece, a line headed by the entry shows the natural chain unless it says otherwise.
UniProt P29466: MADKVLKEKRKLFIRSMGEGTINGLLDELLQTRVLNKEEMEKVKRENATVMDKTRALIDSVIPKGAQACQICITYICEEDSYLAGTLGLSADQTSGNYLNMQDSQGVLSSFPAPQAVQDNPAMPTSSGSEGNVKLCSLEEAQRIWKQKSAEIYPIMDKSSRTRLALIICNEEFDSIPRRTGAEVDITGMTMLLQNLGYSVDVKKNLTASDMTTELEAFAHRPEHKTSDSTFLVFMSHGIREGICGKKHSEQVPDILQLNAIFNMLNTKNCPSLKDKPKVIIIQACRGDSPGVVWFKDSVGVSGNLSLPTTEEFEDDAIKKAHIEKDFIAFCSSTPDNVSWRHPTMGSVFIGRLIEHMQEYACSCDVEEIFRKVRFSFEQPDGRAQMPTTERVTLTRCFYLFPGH

Substance: pro-caspase-1 (C285A mutant) (from UniProt P29466 1-404) (enzyme)
- binding: binds

Source: patent US20020176853A1
